# Assay results from PMC7819943, “Rice protein-binding microarrays: a tool to detect cis-acting elements near promoter regions in rice”.
# Amino acid sequences for entries named in this document (tags omitted).
# UniProt Q0JBA9, entry or part of it: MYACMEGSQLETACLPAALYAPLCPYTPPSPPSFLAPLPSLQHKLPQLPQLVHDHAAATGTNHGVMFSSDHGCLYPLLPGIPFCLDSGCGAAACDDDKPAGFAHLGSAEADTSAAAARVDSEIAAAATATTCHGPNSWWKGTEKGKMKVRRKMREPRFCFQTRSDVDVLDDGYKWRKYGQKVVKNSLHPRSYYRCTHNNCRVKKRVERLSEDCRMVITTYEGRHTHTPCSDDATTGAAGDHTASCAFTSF
# This is one part of the list.
# Target: OsWRKY34 (Oryza sativa, UniProt Q0JBA9 1-250)
# Experiment: protein-binding microarray (RPBM); PBS, 2% BSA, 51.3 ng/ul salmon testes DNA, 50 uM zinc acetate, 200 nM TF, 25 C, 1 h; high values mean tight binding
# Settings: protein: recombinant; tags: N-terminal polyhistidine and DsRed monomer fusion (pET32a); label: CyDye5-dUTP incorporated in the synthesized complementary strand; 3' TTTTT single-stranded linker to array surface; dsDNA, one strand shown
# Method in brief: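 An Axon 4000B scanner gave the binding signal as per-feature fluorescence intensity in arbitrary units. This followed washing of a custom Agilent array that had been incubated for 1 h at 25 °C with 200 nM protein in PBS, 2% BSA, salmon testes DNA and 50 µM zinc acetate. The proteins were transcription factors fused at the N-terminus to polyhistidine and DsRed, expressed in E. coli BL21-CodonPlus and purified on Ni–NTA.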
row,Sequence,binding signal
1,CTTTGTTCTTTGCGGTGTTTCGTTTTCACATCCCTGGAAACGGAGTCACCTAGTGCAG,13600 fluorescence intensity (a.u.)
2,CAGATCACTTTATTACATGCCTTTTTTCGCCGGCCAATCACGGAGTCACCTAGTGCAG,8260 fluorescence intensity (a.u.)
3,CTGTGTTGCCCAAGTCTTTAAATAGCTCTCTCCTCAGTCTCGGAGTCACCTAGTGCAG,9410 fluorescence intensity (a.u.)
4,CTTCTCACACGTCGTCAAAGCCTCTGACTTTGGATATCCCCGGAGTCACCTAGTGCAG,9990 fluorescence intensity (a.u.)
5,ACGCGGAGGGGTATTTCATCTAGTATTATTTAAGAGCTATCGGAGTCACCTAGTGCAG,8800 fluorescence intensity (a.u.)
6,ACCATAGGCAGCTTTACGTAACAATAACGTCCACCCGCTTCGGAGTCACCTAGTGCAG,8180 fluorescence intensity (a.u.)
7,GGATAACATAGTCATCGGTATTACTTTCTGCGCAATCAATCGGAGTCACCTAGTGCAG,8560 fluorescence intensity (a.u.)
8,CCGCCAAGGTTGTGCCAGTTCCGGTTTTTTTCCAGTTCAACGGAGTCACCTAGTGCAG,9260 fluorescence intensity (a.u.)
9,TTTCTGCAATGAGGTCATGTTTCATACCATCTTATTTTGTCGGAGTCACCTAGTGCAG,8830 fluorescence intensity (a.u.)
10,ATTGGGTTGATATTATATTGGCAGGGCCAGAAAGTTTTACCGGAGTCACCTAGTGCAG,8580 fluorescence intensity (a.u.)
11,CTTGCCACATCATTTTTCATCCTAGGTGGTAGCTTATTTACGGAGTCACCTAGTGCAG,12900 fluorescence intensity (a.u.)
12,CCCTCGGCAGCCAAAATTTTGCTCATCATCCTCTCCAGTTCGGAGTCACCTAGTGCAG,10000 fluorescence intensity (a.u.)
13,GCCACCGCCTGCCTGCCGCCGCCGTCTCCCACCTCCCGCCCGGAGTCACCTAGTGCAG,11200 fluorescence intensity (a.u.)
14,GGCCCCTTATTTATTCGCATTCCTCTCCTCATCATCACTCCGGAGTCACCTAGTGCAG,8970 fluorescence intensity (a.u.)
15,TTCTTCGTATTTATTCCTGTTCATCATCATCCCTGACGTCCGGAGTCACCTAGTGCAG,10700 fluorescence intensity (a.u.)
16,GAGCTTTGATATATATTTGTACGAGTAAGCAGTACTCCATCGGAGTCACCTAGTGCAG,8290 fluorescence intensity (a.u.)
17,CGCCGGTACGTTTTCCCCGCCGCCGCCTTTCCGGCCGGCCCGGAGTCACCTAGTGCAG,8950 fluorescence intensity (a.u.)
18,ACTACTCTGTTTGACCATCATTTTAGTTTTCCTCGATTAACGGAGTCACCTAGTGCAG,9420 fluorescence intensity (a.u.)
19,TCTGTTCCGCATGTTCGAGCTCGCCTACAGCAACATATTTCGGAGTCACCTAGTGCAG,9270 fluorescence intensity (a.u.)
20,TCTAGCACTCTTTTTTTTCCTGAATTTAGAACTCATTGCCCGGAGTCACCTAGTGCAG,8270 fluorescence intensity (a.u.)
21,CTGTCATCACTCATCACTCTTTCTCAAAGCTTCTATCAAACGGAGTCACCTAGTGCAG,10100 fluorescence intensity (a.u.)

# Part of the list above, tab-delimited.
row	Sequence	binding signal
15	TTCTTCGTATTTATTCCTGTTCATCATCATCCCTGACGTCCGGAGTCACCTAGTGCAG	10700 fluorescence intensity (a.u.)
16	GAGCTTTGATATATATTTGTACGAGTAAGCAGTACTCCATCGGAGTCACCTAGTGCAG	8290 fluorescence intensity (a.u.)

# Following part

row,Sequence,binding signal
1,TCATTTGCTCCATGCTGTATCTGTTTTGACAAATTGTTCACGGAGTCACCTAGTGCAG,10200 fluorescence intensity (a.u.)
2,GCAAGCACTAGTACTCCATTGACTAGTCTTTCATTTCACACGGAGTCACCTAGTGCAG,9420 fluorescence intensity (a.u.)
3,CTTCTCGTGGGGCATATATCCCTTCTGCGCTGTACTGTAACGGAGTCACCTAGTGCAG,9620 fluorescence intensity (a.u.)
4,ATTTCTTCTATTTTGTTTTGACAATACTGTGTTTCAAAGACGGAGTCACCTAGTGCAG,8530 fluorescence intensity (a.u.)
5,GAGAGTTGGCTATATGGGTGTTTGGAGAGTTCGATTTGGACGGAGTCACCTAGTGCAG,10100 fluorescence intensity (a.u.)
6,GGGAGTACATTTACATTTTATTATTATTGTCATTTTTTATCGGAGTCACCTAGTGCAG,11200 fluorescence intensity (a.u.)
7,CAAGTGTTCAGTGTCCTCGATTTGTTTTGTATTTGGTAACCGGAGTCACCTAGTGCAG,13000 fluorescence intensity (a.u.)
8,TCTCTTTTTGTTGTCTTTATGTTTGTATGTTTGTCTCCTTCGGAGTCACCTAGTGCAG,12700 fluorescence intensity (a.u.)
9,TCAGTTTAGTCCTTGATATTTCAATCTATCCATATTAGTCCGGAGTCACCTAGTGCAG,8390 fluorescence intensity (a.u.)
10,TTCTCCCTTTATTTTTGTTTATATAATTTCCAGATCAAAGCGGAGTCACCTAGTGCAG,8890 fluorescence intensity (a.u.)
11,ATTACACGCTTGAGTTGCAACCATTTCTGCAGTTTCGGCTCGGAGTCACCTAGTGCAG,8950 fluorescence intensity (a.u.)
12,CACATTAGAACAATTCAAAGTCTCATACATCATCGTTCATCGGAGTCACCTAGTGCAG,8230 fluorescence intensity (a.u.)
13,CGCGATCACTCGATCTCACTCACCAACCTTTTCCATTTTACGGAGTCACCTAGTGCAG,12200 fluorescence intensity (a.u.)
14,GACAAGTTTCAGTGCGTGACAGGGGAGGGGCTACAGAACTCGGAGTCACCTAGTGCAG,8750 fluorescence intensity (a.u.)
15,AGGCTCATCCTGTCCCGTCCTGTAGCCGTTACAAGTTGGTCGGAGTCACCTAGTGCAG,8070 fluorescence intensity (a.u.)
16,TGGTTCTTTGATCTTTTAATTTTGTTTGTTTGTTTGTTTTCGGAGTCACCTAGTGCAG,12800 fluorescence intensity (a.u.)
17,ACGCCACCCGCGCCCGCGCCCAACCAACCCACTCGGTCTCCGGAGTCACCTAGTGCAG,9030 fluorescence intensity (a.u.)
18,GGCTGTTGTTTTTCCTTGTTATTCTTTCAGTAAGATATTTCGGAGTCACCTAGTGCAG,12800 fluorescence intensity (a.u.)
19,GTATTACTTATAGGGTGTTTGCATGTTTCAATTGTTTTAACGGAGTCACCTAGTGCAG,8120 fluorescence intensity (a.u.)
20,GCTAGGGTTGCGCTGCTTCGGTCTCGGTCTTGGCGCCGCCCGGAGTCACCTAGTGCAG,8110 fluorescence intensity (a.u.)
21,TGCATTAATTGCTTCCATATCTGGGGTTCAAACTGATATCCGGAGTCACCTAGTGCAG,8800 fluorescence intensity (a.u.)

row,Sequence,binding signal
1,GAAGTGTCGAACTCAACCTCGTCTCTCAGTCTCCGTCACTCGGAGTCACCTAGTGCAG,10500 fluorescence intensity (a.u.)
2,CACCAGTAATATCGTACAGTACTACTCCAACATGTCACCACGGAGTCACCTAGTGCAG,8550 fluorescence intensity (a.u.)
3,TTTGGTTGGGGCGATCTTTCTGGGCTGGGCCGCAAGTTCACGGAGTCACCTAGTGCAG,10700 fluorescence intensity (a.u.)
4,CATCGCCTCCGCTTCTGCTTTTTTTTTTCTTTTTTCTCGTCGGAGTCACCTAGTGCAG,10200 fluorescence intensity (a.u.)
5,CATCAATAACAAATGTTTACTGTAGCACAATATTGCTAAACGGAGTCACCTAGTGCAG,8580 fluorescence intensity (a.u.)
6,GAATTACCAATTTGACCATACTTTTTCAGGTTTGCTTATTCGGAGTCACCTAGTGCAG,9600 fluorescence intensity (a.u.)
7,CGCCCGCTGCATGCCACCTATGTCTGCGTTATTGCTTCTCCGGAGTCACCTAGTGCAG,8440 fluorescence intensity (a.u.)
8,ATCCAATGGTATAATTTTTTTAGGGAAGGGTTTTTTTTTCCGGAGTCACCTAGTGCAG,12600 fluorescence intensity (a.u.)
9,CCTCCTCTCTCTCTCGCTCACACTCTCTCTCTTCTCTCTACGGAGTCACCTAGTGCAG,11400 fluorescence intensity (a.u.)
10,CTCCATAACAGCACCATCTTTGCTTCCTTGCCGGTTAGAGCGGAGTCACCTAGTGCAG,8060 fluorescence intensity (a.u.)
11,CGGAGGTTCGTTCTTGTTGTTGCATGTATGTTCATCATCACGGAGTCACCTAGTGCAG,12900 fluorescence intensity (a.u.)
12,ACTTCGACAGCTTCACCACCTTCGTTTACCCATTGCCATGCGGAGTCACCTAGTGCAG,10100 fluorescence intensity (a.u.)
13,GAGTTTGGACCTGACATTCCTGCCACGTCGGCTAGGCGATCGGAGTCACCTAGTGCAG,9280 fluorescence intensity (a.u.)
14,GTTTGCTTGGGGATTAGGACTTCTTGTACAAGGTTGGTTCCGGAGTCACCTAGTGCAG,8530 fluorescence intensity (a.u.)
15,CCTTTGCTTGACTTTTTCGGGCCATATCGCTCAAAACCGTCGGAGTCACCTAGTGCAG,10100 fluorescence intensity (a.u.)
16,TTTACATGGTTGGGTTCTTGTGTATGTGGCGGAAAGAGGGCGGAGTCACCTAGTGCAG,8060 fluorescence intensity (a.u.)
17,CTGTTACATTGTTCCAATTTCAACCAAACTTCTATTTTCACGGAGTCACCTAGTGCAG,8740 fluorescence intensity (a.u.)
18,ACACCACTTGCCTAGTCATCAACACATCAAAAATATTCATCGGAGTCACCTAGTGCAG,8800 fluorescence intensity (a.u.)
19,ACCGCCACCACCTTTGCCAGGCAACCACTGGCCATGAGAGCGGAGTCACCTAGTGCAG,8510 fluorescence intensity (a.u.)
20,TGTTGGTTCCATCTTATCTCATCACCTGTCCTATATCTAGCGGAGTCACCTAGTGCAG,9560 fluorescence intensity (a.u.)
21,TCCCATAGATTCTCTCCGAACTTCACACACGCCATAACCCCGGAGTCACCTAGTGCAG,8620 fluorescence intensity (a.u.)

row,Sequence,binding signal
1,TTTTAATACTGTTTGAAACTATTTTACACTGTTCACACAACGGAGTCACCTAGTGCAG,8100 fluorescence intensity (a.u.)
2,TGTCCACCGCCGACGGTCGTCGCCGCCCGTCGCCGCTCTACGGAGTCACCTAGTGCAG,9160 fluorescence intensity (a.u.)
3,CCCCATTTCATATTATAAGTTGTTTGACTTTTTTCTTGGTCGGAGTCACCTAGTGCAG,14700 fluorescence intensity (a.u.)
4,ATTATACGTTTGCTACTAATTTATACATGATGTTCATATTCGGAGTCACCTAGTGCAG,8880 fluorescence intensity (a.u.)
5,GCTGCCGTCACTGCTCTGCTATGGTCATGCTTGAATTATCCGGAGTCACCTAGTGCAG,9380 fluorescence intensity (a.u.)
6,AACATGAGCTGCTTCCAACATATCCTCGGTCCAGCCGTCTCGGAGTCACCTAGTGCAG,10000 fluorescence intensity (a.u.)
7,CGGCACTACAAAATTCCATTTTCTTATTAGTACTTTTTAACGGAGTCACCTAGTGCAG,8660 fluorescence intensity (a.u.)
8,AGCCGATTGCCTTTATATCATCATCTACATTGGACATATACGGAGTCACCTAGTGCAG,10400 fluorescence intensity (a.u.)
9,ATGTGCCGATGTATTTGACTTACTGTCCCTGGTAATGAAACGGAGTCACCTAGTGCAG,8510 fluorescence intensity (a.u.)
10,TTGGCTTGTTGTTCATAGTTCCTACCAATTGCGTGTCCTCCGGAGTCACCTAGTGCAG,9590 fluorescence intensity (a.u.)
11,AGTAGACCAAGTGTTTGAGTGTGACAATATTTCTTTCTTCCGGAGTCACCTAGTGCAG,9150 fluorescence intensity (a.u.)
12,GGACCTACTTTCGCGATTTTCCCCGGTTGGCCACTACTTTCGGAGTCACCTAGTGCAG,18800 fluorescence intensity (a.u.)
13,TACTCCCTCCGTTTCATAATATATGTCTAGGTTCATTAACCGGAGTCACCTAGTGCAG,8350 fluorescence intensity (a.u.)
14,ACCACATGTATCAGCTCATGCTGAATCCGCCCAAAATAACCGGAGTCACCTAGTGCAG,8620 fluorescence intensity (a.u.)
15,TAATCTTTCCTTTGTACCACTGTGCCGTCGACCTGCCAGCCGGAGTCACCTAGTGCAG,8920 fluorescence intensity (a.u.)
16,TTTTGAGATGCTTCACCTTCACTGCTTGTCCTCATCGATTCGGAGTCACCTAGTGCAG,9910 fluorescence intensity (a.u.)
17,GCTCTCTCTCTCTCTCTCTCTCCATTTTTTTCTTATTTTTCGGAGTCACCTAGTGCAG,8490 fluorescence intensity (a.u.)
18,TTAGATCCTCCTCGTGGTCCTGCCGTCCGTCCCAACTTCGCGGAGTCACCTAGTGCAG,8450 fluorescence intensity (a.u.)
19,AGTCAGTCCACACTCCACACCAGTCTCCATCACAGTTTCCCGGAGTCACCTAGTGCAG,11200 fluorescence intensity (a.u.)
20,TATCCCATCGGTCAGACCGCACGCACACCTGCGGTTAGACCGGAGTCACCTAGTGCAG,8170 fluorescence intensity (a.u.)
21,AAACCCTGGTAGTATCTATCTATACTCTACCTATCTTTTTCGGAGTCACCTAGTGCAG,8410 fluorescence intensity (a.u.)

# Part of the list above in a different format:
row	Sequence	binding signal
5	GCTGCCGTCACTGCTCTGCTATGGTCATGCTTGAATTATCCGGAGTCACCTAGTGCAG	9380 fluorescence intensity (a.u.)
6	AACATGAGCTGCTTCCAACATATCCTCGGTCCAGCCGTCTCGGAGTCACCTAGTGCAG	10000 fluorescence intensity (a.u.)
7	CGGCACTACAAAATTCCATTTTCTTATTAGTACTTTTTAACGGAGTCACCTAGTGCAG	8660 fluorescence intensity (a.u.)
8	AGCCGATTGCCTTTATATCATCATCTACATTGGACATATACGGAGTCACCTAGTGCAG	10400 fluorescence intensity (a.u.)
9	ATGTGCCGATGTATTTGACTTACTGTCCCTGGTAATGAAACGGAGTCACCTAGTGCAG	8510 fluorescence intensity (a.u.)
10	TTGGCTTGTTGTTCATAGTTCCTACCAATTGCGTGTCCTCCGGAGTCACCTAGTGCAG	9590 fluorescence intensity (a.u.)
